Source: patent EP0802730B1, “PESTICIDAL COMPOUNDS” (BTG INTERNATIONAL LIMITED, priority 1995, dated 1996)
Some entries share one result that the patent states for a list of compounds.

system: resistant strains of whitefly; test: Further tests with various resistant strains of whitefly; type: in vivo; conditions: result in words

| SMILES | activity against resistant strains of whitefly |
| --- | --- |
| CCC(C)(C)C1=C(OC(C)=O)C(=O)c2ccccc2C1=O [Example 2, 2-(1,1-dimethylpropyl)-3-ethanoyloxy-naphthalene-1,4-dione] | highly active |
| CC(C)(C)C1=C(O)C(=O)c2ccccc2C1=O [Example 3, 2-(t-butyl)-3-hydroxy-naphthalene-1,4-dione] | highly active |
| C=CC(C)(C)C1=C(OC(=O)CF)C(=O)c2ccccc2C1=O [Example 9] | highly active |
| CCC(C)(C)C1=C(O)C(=O)c2ccccc2C1=O [Example 1, 2-(1,1-dimethylpropyl)-3-hydroxynaphthalene-1,4-dione] | highly active |
